Reference: PubChem BioAssay AID445 (National Center for Advancing Translational Sciences (NCATS), 2006)
Some of the results follow. The main result of the screen is listed elsewhere. These columns were measured beside it and carry no call. The list favours compounds with an active or inconclusive main result. The note in brackets gives the kind of curve behind each potency; many fits are weak.

Test: IkB Signaling
Conditions: ABC-DLBCL IkBa-CBG/CBR dual luciferase ratio (green luciferase fused to IkBa over red control in OCI-Ly3 lymphoma cells), 4 h
Outline: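 Luminescence ratio of IκBα-fused green versus native red beetle luciferase in OCI-Ly3 cells, 4 h post-doxycycline with compound; red signal alone, scaled from basal (0%) to zero light (-100%), flagged nonspecific or cytotoxic effects.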

[1] = measured here: control luc red channel unless noted
[2] = measured here: IkB-luc green channel
[3] = measured here: control luc red channel

In the case of `COc1ccc(CCN2C(=O)N(c3ccccc3)C(=O)C2CC(=O)Nc2ccccc2)cc1` (stereo not drawn), the AC50 [1] is reported as 39.8 µM [falling, single point].

For `Cc1nc(N2CCOCC2)c2c(C(=O)N3CCN(c4cccc(C)c4C)CC3)c(C)oc2n1`, the AC50 [1] was 25.1 µM [falling, single point].

With `COc1ccc(Nc2cc(C(=O)NCc3ccccc3)c3ccccc3n2)c(OC)c1` the AC50 [1] was 10 µM [falling, partial curve].

With `COc1ccc2c(CNCCc3ccccc3)c(C(=O)O)n(Cc3cccc(F)c3)c2c1` the AC50 [1] was 12.6 µM [falling, partial curve].

For `COc1ccc(-c2noc(-c3cccc(OC)c3OC)n2)cc1`, the AC50 [1] was 39.8 µM [falling, single point].

In the case of `CCN(CC)S(=O)(=O)c1ccc2oc(C(=O)Nc3ccc(OC)cc3OC)c(C)c2c1`, the AC50 [1] is reported as 3.16 µM [rising, full curve, poor fit] [measured here: IkB-luc green channel].

With `COc1ccc(N(Cc2cccs2)C(=O)COc2cc(C)c(Cl)c(C)c2)cc1` the AC50 [1] was 15.8 µM [falling, partial curve].

For `Cc1cccc(NC(=O)Cc2ccc(-n3c(C)nc4cccnc43)cc2)c1C`, the AC50 [1] was 25.1 µM [falling, single point].

With `Cc1cc(-c2ccc(S(=O)(=O)Nc3ccc(Br)c(C)c3)s2)on1` the AC50 [1] was 20 µM [falling, partial curve].

For `CCOC(=O)C1CCN(C(=O)c2oc3ccc(S(=O)(=O)N4CC(C)CC(C)C4)cc3c2C)CC1` (stereo not drawn), the AC50 [1] was 10 µM [falling, partial curve].

In the case of `Cc1ccc2c(c1)-c1c(cnn1CC(=O)N1CCN(c3cc(Cl)ccc3C)CC1)CO2`, the AC50 [1] is reported as 25.1 µM [falling, partial curve].

In the case of `CC(C)C(NS(=O)(=O)c1cccc2cccnc12)C(=O)Nc1ccc(OC(F)(F)F)cc1` (stereo not drawn), the AC50 [1] is reported as 25.1 µM [falling, single point].

For `O=C(c1ccccc1)c1ccc2nc(Nc3cc(Cl)ccc3O)c3nncn3c2c1`, the AC50 [1] was 0.316 µM [rising, partial curve].

For `Cc1ccc(C)c(NC(=O)NCc2ccc3c(c2)CCN3C(=O)c2ccccc2)c1`, the AC50 [1] was 39.8 µM [rising, single point] [measured here: IkB-luc green channel].

With `COc1ccc(S(=O)(=O)NCc2ccc(C(=O)NCc3ccccc3)cc2)cc1` the AC50 [1] was 3.16 µM [falling, full curve, poor fit].

For `O=C(Cn1c2ncccc2c(=O)n1-c1ccccc1)Nc1ccc(Cl)cc1C(F)(F)F`, the AC50 [1] was 3.98 µM [rising, partial curve].

In the case of `COCc1cc(C)nc2sc3c(c12)NC(c1ccc(O)cc1)N(c1ccc(C)cc1)C3=O` (stereo not drawn), the AC50 [1] is reported as 15.8 µM [falling, partial curve].

For `CCN(C(=O)c1cn(-c2ccc(OC)cc2)c(=O)c2ccccc12)c1cccc(Cl)c1`, the AC50 [1] was 12.6 µM [falling, partial curve].

In the case of `Cc1cccc(C(=O)Nc2ccc3oc(-c4ccncc4)nc3c2)c1`, the AC50 [1] is reported as 39.8 µM [falling, single point].

In the case of `CCOC(=O)C1CCCN(S(=O)(=O)c2ccc3[nH]c(=O)oc3c2)C1` (stereo not drawn), the AC50 [1] is reported as 20 µM [falling, single point].

In the case of `COc1ccccc1NC(=O)c1sc2ncn(Cc3ccccc3Cl)c(=O)c2c1C`, the AC50 [1] is reported as 3.98 µM [rising, single point].

For `O=C(Nc1ccc(CN2CCOCC2)cc1)c1ccc(-c2ccc(Br)cc2)o1`, the AC50 [1] was 6.31 µM [falling, full curve].

With `COc1cccc(CN2C(=O)CN(C3CCCCC3)C(=O)C2c2ccc(OC)c(OC)c2)c1` (stereo not drawn) the AC50 [1] was 0.0316 µM [rising, full curve].

In the case of `CCC(C)Sc1c(C(C)C)cnc2c1c(=O)n(C)c(=O)n2C` (stereo not drawn), the AC50 [1] is reported as 0.0251 µM [falling, full curve].

For `COc1ccc(-n2c(/C=C/c3c(C)[nH]c4ccccc34)nc3ccccc3c2=O)cc1`, the AC50 [1] was 15.8 µM [falling, single point].

With `COc1ccccc1C(=O)Nc1ccc(OCc2cc(=O)n3ccc(C)cc3n2)cc1` the AC50 [1] was 1 µM [falling, full curve, poor fit].

In the case of `CC1=C(C(=O)OC(C)C)C(C)C(C(=O)OC(C)C)=C(C)N1`, the AC50 [1] is reported as 20 µM [falling, partial curve].

For `COc1ccc(C(=O)Oc2cc(-c3ccc4c(c3)OCO4)cc(=O)c3c(C)oc(C)c23)cc1`, the AC50 [1] was 39.8 µM [rising, partial curve].

For `Cc1ccc(Cl)cc1NC(=O)CSc1nc2c(c(=O)[nH]1)CN(Cc1ccccc1)CC2`, the AC50 [1] was 25.1 µM [falling, single point].

With `CCOC(=O)c1cccc(NC(=O)CSc2nnc(-c3ccoc3C)n2CCOC)c1` the AC50 [1] was 25.1 µM [falling, partial curve].

With `Cc1ccccc1C(=O)Nc1ccc(C(=O)OCc2cc(=O)n3nc(C(C)C)sc3n2)cc1` the AC50 [1] was 12.6 µM [falling, partial curve].

For `COC(=O)c1cccc(Nc2nn3c(=O)c4cc5c(cc4nc3s2)OCO5)c1`, the AC50 [1] was 0.00631 µM [falling, full curve, poor fit].

In the case of `COc1ccc(-c2[nH]c3ccccc3c2SCCNC(=O)c2ccc(S(=O)(=O)N(C)C)cc2)cc1`, the AC50 [1] is reported as 1.26 µM [falling, full curve].

With `COC(=O)Nc1nc2ccc(Sc3ccccc3)cc2[nH]1` the AC50 [2] was 0.631 µM [rising, full curve] and the AC50 [3] was 0.794 µM [rising, full curve].

With `O=C(CSC1=Nc2ccccc2N=C(c2ccc(F)cc2)C1)NCc1ccccc1Cl` the AC50 [1] was 12.6 µM [falling, partial curve, poor fit].

For `CCOc1ccc(CNC(=O)c2sc3ncnc(N(C)C4CCCCC4)c3c2C)cc1`, the AC50 [1] was 39.8 µM [falling, single point].

With `NC(=O)c1ccccc1NC(=O)Cn1nc(Cc2cccnc2)c2ccccc2c1=O` the AC50 [1] was 25.1 µM [falling, single point].

In the case of `COCCN1Cc2cccc(C(=O)Nc3ccc(C)cc3C)c2C1=O`, the AC50 [1] is reported as 10 µM [falling, partial curve].

For `CCN(C(=O)C1CCN(S(=O)(=O)c2ccc3c(c2)CCCN3C(=O)C2CCC2)CC1)c1cccc(C)c1`, the AC50 [1] was 39.8 µM [falling, partial curve, poor fit].

With `Cc1c(C(=O)NCc2ccc(N(C)C)cc2)oc2c1-c1nn(Cc3cccc(Cl)c3)cc1CC2` the AC50 [1] was 15.8 µM [falling, partial curve].

For `COc1ccc(-c2nc(-c3ccccc3)c(-c3ccccc3)[nH]2)cc1Br`, the AC50 [1] was 3.16 µM [falling, full curve].

In the case of `Oc1c(I)cc(Cl)c2cccnc12`, the AC50 [1] is reported as 316 nM [rising, full curve, poor fit] [measured here: IkB-luc green channel].

In the case of `CCCC12CN3CC(CCC)(CN(C1)C3c1c[nH]c3ccccc13)C2=O` (stereo not drawn), the AC50 [1] is reported as 10 µM [falling, partial curve].

With `COc1ccc2c(=O)cc(-c3ccncc3)oc2c1OC` the AC50 [1] was 3.98 µM [falling, partial curve].

For `COc1ccc(CCNC(=O)c2cc(-c3ccccc3)nc3ccccc23)cc1OC`, the AC50 [1] was 25.1 µM [falling, partial curve].

In the case of `CCn1cc(C(=O)OCC(=O)Nc2cc(C)cc(C)c2)c(=O)c2ccc(C)nc21`, the AC50 [1] is reported as 3.16 µM [rising, full curve, poor fit].

For `O=C(CSc1nc2ccccc2c(=O)n1CCC(=O)NC1CCCCC1)Nc1ccccc1Cl`, the AC50 [1] was 3.16 µM [rising, single point].

With `Cc1nn(CCCC(=O)NCc2ccccc2)c(=O)c2nn(-c3ccccc3)c(C)c12` the AC50 [1] was 12.6 µM [falling, single point].

In the case of `CC(C)c1nnc(N2C(=O)c3oc4ccccc4c(=O)c3C2c2cccc(O)c2)s1` (stereo not drawn), the AC50 [1] is reported as 20 µM [falling, single point].

With `O=C(CSc1cn(CC(=O)N2CCCCCC2)c2ccccc12)Nc1ccccc1F` the AC50 [1] was 20 µM [falling, partial curve].

In the case of `CCc1nnc2c(NCc3ccccc3OC)nc3ccccc3n12`, the AC50 [1] is reported as 7.94 µM [falling, full curve].

In the case of `CCOc1ccc(CC(=O)Nc2nnc3n2CCS3)cc1`, the AC50 [1] is reported as 1 µM [rising, full curve, poor fit].

For `COc1ccc(C(=O)c2cn(Cc3ccc(C)cc3)c3cc4c(cc3c2=O)OCO4)cc1`, the AC50 [1] was 3.98 µM [falling, single point].

With `COc1ccc2nc(N3CCCC(O)C3)c(C#N)cc2c1` (stereo not drawn) the AC50 [2] was 39.8 µM [rising, single point] and the AC50 [3] was 20 µM [rising, partial curve].

In the case of `COc1cc(NC(=O)CCS(=O)(=O)c2nc(-c3cccs3)cc(C(F)(F)F)n2)cc(OC)c1OC`, the AC50 [1] is reported as 3.16 µM [falling, full curve].

In the case of `Cc1c(Cl)cccc1NC(=O)CCn1c(=O)c2cccn2c2ccccc21`, the AC50 [1] is reported as 31.6 µM [falling, single point].

In the case of `c1ccc2c(c1)oc1c(NCc3ccc4c(c3)OCO4)ncnc12`, the AC50 [1] is reported as 15.8 µM [falling, partial curve].

For `CC(CNC(=O)C1CCN(Cc2cc3ccccc3n2Cc2ccccc2)CC1)c1ccccc1` (stereo not drawn), the AC50 [1] was 25.1 µM [falling, partial curve].

With `Cc1ccc2c(CC(=O)Nc3ccccc3C(F)(F)F)coc2c1C` the AC50 [1] was 3.16 µM [falling, partial curve].

With `CCOc1ccccc1NC(=O)CSc1nccn1-c1ccc(Cl)cc1` the AC50 [1] was 3.16 µM [falling, partial curve].

In the case of `COc1cc2c(cc1OC)C(C)N(C(=O)Cn1ncc3c1-c1ccccc1OC3)CC2` (stereo not drawn), the AC50 [1] is reported as 15.8 µM [falling, partial curve].
